Literature values in patent publication US20020072512A1, “Method of preventing and treating HIV-mediated central nervous system damage” (priority 2000, published 2002).
For at least one compound, name, drawing or mass did not settle the structure.

Columns and labels:
[1] = cited from earlier work
[2] = cited from earlier work; remark: listed apart in the source

[Cl-].[Cl-].[Mn+2].c1cc2nc(c1)CN[C@@H]1CCCC[C@H]1NCCN[C@@H]1CCCC[C@H]1NC2 [M40403]
reaction with ONOO— [1]: nor do they react
reaction with nitric oxide [2]: nor do they react
